Source: the supplement of paper PMC3334620
In all, about 33,000 sequences were measured (“E-score (-0.5 to 0.5)”: median about -0.0059, highest 2% from about 0.26 on). The list shows a part of the results.

target: T1, Cin5 (UniProt P40917); experiment: PBM E-score (8-mer binding enrichment) (E-score (-0.5 to 0.5)); higher = stronger / more preferred TF binding; conditions: protein concentration: 100 nM; construct: GST-full length
T1 sequence: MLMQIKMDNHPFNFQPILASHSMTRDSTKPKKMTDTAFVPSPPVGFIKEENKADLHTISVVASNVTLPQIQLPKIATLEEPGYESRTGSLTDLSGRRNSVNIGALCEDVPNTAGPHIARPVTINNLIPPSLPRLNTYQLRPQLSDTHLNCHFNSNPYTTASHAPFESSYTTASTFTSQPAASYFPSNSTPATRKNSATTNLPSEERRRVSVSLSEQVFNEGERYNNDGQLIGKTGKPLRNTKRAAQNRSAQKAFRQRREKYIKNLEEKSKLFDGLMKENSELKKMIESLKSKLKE
Procedure: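 Universal 'all 10-mer' protein binding microarrays (Agilent AMADID 015681) probed with GST-tagged S. cerevisiae TFs (full-length or DBD) made by in vitro transcription/translation (PURExpress), about 100-200 nM. Bound TF was detected with fluorescent anti-GST. Each ungapped 8-mer (which stands for itself and its reverse complement) is scored by the PBM enrichment score (E-score), a modified Wilcoxon-Mann-Whitney statistic from -0.5 to +0.5, computed with the Universal PBM Analysis Suite. Scale: above 0.35 generally sequence-specific binding.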

Sequence	PBM E-score
ACGACAAG	0.0721
GACAGTCC	-0.247
GTCAAAAA	-0.0603
CTTCGAGA	-0.103
CCTAGTCA	-0.0868
AAAGTGAC	-0.0856
GTATGGCA	0.0394
GTCAGCTA	0.083
CAGTATCA	0.0369
ATGCCACG	0.00813
AGAGGCAC	-0.115
CAGTTCAC	-0.00711
GTGCGCGA	-0.0112
CACACAAA	0.134
ATTAACAG	0.0268
ATATTGTG	0.107
TAACTGAA	0.0738
CTGAGCTA	-0.156
ACTTTTCG	0.0911
TTAGAAAA	0.0447
ACCACGGA	-0.136
GCAGTGCA	-0.0723
CACTTGTA	0.05
CCTGGCAG	-0.129
CCGTGGAA	0.0574

Sequence	PBM E-score
TATGCTGA	0.083
ACTGCAAA	0.0431
CCCTAACC	-0.11
CCTACTAA	0.0518
TGCGAGAA	-0.0508
CCGGTTCC	-0.05
ACTTATCG	0.071
CGAGCCCG	-0.212
CAACATTA	0.233
ACGTCGAC	-0.0163
ACCACTCT	-0.113
ATACCAAG	0.0673
ACTCCTAC	-0.0496
AGACTCGG	-0.315
CTGCCCAC	-0.151
GCATAAGC	0.276
CCCAGAGA	-0.106
ACCATACC	-0.0386
AATATACC	0.225
CATGTGTC	-0.0117
ACGAGGAG	-0.177
AAGTGGGC	0.0808
AAAAGTTT	0.00197
CCCTACGA	-0.0634
CGACCTCA	-0.0328

For convenience, some entries already given:
Sequence	PBM E-score
ACCACTCT	-0.113
ATACCAAG	0.0673
ACTCCTAC	-0.0496
AGACTCGG	-0.315
CTGCCCAC	-0.151
GCATAAGC	0.276

(listing goes on)

Sequence	PBM E-score
ATGAACCA	0.184
ATCAGCAT	0.18
ATCTTGAA	-0.0556
ACAGGGTC	-0.0638
AGGGTACA	0.0077
CGTCTTAA	-0.137
GTTTATGA	0.0759
CTTTTACC	0.0816
CTCTGGCA	-0.233
AATCAGCC	0.119
TTCTTCAA	0.0318
CTGTTGTC	0.0655
TAAGATAA	-0.0435
CAGTGAGA	-0.0414
CGCTTTTC	-0.0646
GACAAGAC	-0.0414
TCCAAACA	-0.121
AACGTTGT	-0.00831
CGAAGACG	-0.0228
CGATGTGA	-0.00227
ATACCTGG	-0.183
AGCTTCTC	-0.0429
GAACTTAC	0.106
GGTGGCGA	-0.033
CACATACC	-0.111

Sequence	PBM E-score
CGGACAAA	0.0503
GTCACGAA	0.0162
AGTCGGTC	-0.138
AATGTTAC	0.0791
CGGTCTTA	-0.281
AAAACGGC	0.0328
CGGAACAA	0.302
CTGGACGA	-0.129
CGTGGGCC	-0.176
AGCAAAAT	0.0722
ATGTGCAG	-0.072
CCTAGGGC	-0.254
CATGAATG	0.11
ATTATTAC	0.305
ATATCATG	0.0651
CCTTCTAA	-0.147
CGAATACA	0.0945
ATGCAGAA	0.163
GCAGTAAA	0.0302
AGCTTAAC	-0.0689
AGTTTTCC	0.155
GCTGGCTA	-0.276
CCAGCGGG	-0.187
ATATGTAG	0.0753
AAAACACG	0.0801

Sequence	PBM E-score
TGCGGCAA	-0.0901
GTAACCAC	-0.0529
CATACTTC	0.0509
CTTCCTTC	-0.224
AGAAAGAT	0.225
ATTAGGGA	-0.0915
AAACGCTG	-0.139
CTATGCTC	0.033
AAGGTGTC	-0.095
ACGGTAGT	-0.0545
CGCAGGAG	-0.081
AATAGGGG	0.0525
GCCCACAC	-0.00586
ATTAAACA	0.0324
AATATCTA	-0.00558
CAGCTCCC	-0.305
GGTGACGA	0.0219
GAACCTCC	-0.231
CACCTCAA	0.0654
CCCTAGGG	-0.347
ATGACATC	0.248
AAAGACCA	-0.155
CTTGCCAA	-0.0718
TTCAGGAA	-0.158
ACTGAATG	0.0689

Sequence	PBM E-score
CGCCTACG	-0.0814
GGAACCTA	0.0299
AATAATCT	0.345
ATTAGGCG	-0.00055
TGACCAAA	0.0366
ATGAACGA	0.0193
GTTAGATA	0.113
CCGTAAGG	-0.33
CACATGCC	-0.0042
ACTCGCAT	0.202
CTTGGGGA	0.198
AGTAAAGG	0.0499
AGAGGTGG	-0.0424
GAGCAGAC	-0.118
CACGCGAG	0.113
TGACAACA	0.142
ACTAGGCC	-0.202
GGCTTTTA	-0.223
ATCGTAAC	0.0852
ACGGTGGG	-0.0554
CGGTACCG	-0.0517
GCTGGTCC	-0.138
AATATGTC	0.103
ACTTGTAA	0.0818
AAATAAGC	0.189

Sequence	PBM E-score
CGCGAGGA	0.0603
TCTAGGCA	-0.134
CTGTCTAA	-0.0712
CACGGTCG	-0.283
TCCAAGCA	-0.0771
GATTCCGC	0.183
CGAAAAGC	-0.179
CCATTCGC	0.0335
TGTCGTAA	0.15
CAGAGGAA	-0.115
CCCGTGTC	-0.16
ATTTAGTC	0.0988
GCCAACTA	-0.0888
AGGGATCG	-0.227
CAAGGCCA	-0.0891
CGTGAGGC	-0.104
CACCTCAG	-0.0514
ACGACTAT	0.00256
CTCATCCC	-0.162
GGCGGGAA	0.0169
ACCGCCCT	-0.185
CAGATTGC	0.0222
